In all, about 360,000 compounds went through this assay and about 10,000 (2.8%) were called active. This list was built around the results that the source calls inconclusive (neither active nor inactive); the mix of calls is not that of the screen. The call rests on the fitted dose curve; in most records, active means well fitted inhibition curve with a large enough effect; inconclusive means small, poorly fitted or top-dose-only effect; inactive means flat fitted curve, though single readings scatter. Potencies of inconclusive entries are doubtful fits and often do not repeat.
These compounds were tested against Serine/threonine-protein kinase PLK1 (Homo sapiens) (UniProt P53350) (assay: qHTS for Inhibitors of PLK1-PDB (polo-like kinase 1 - polo-box domain): Primary Screen). Conditions: Plk1 PBD binding of FITC phosphopeptide, fluorescence polarization.
Further: nearly all actives have a fitted effect of over 65% in size.
On the % scale 0 is the no-effect control and ±100 the full control effect; potency means the concentration at half of the fitted maximal effect.
Wherever max response, negative = inhibition is given: series mostly up to about 57 µM.

Sequences of proteins named here, by UniProt entry; tags and fusion partners are left off.
UniProt P53350, whole entry, looked up: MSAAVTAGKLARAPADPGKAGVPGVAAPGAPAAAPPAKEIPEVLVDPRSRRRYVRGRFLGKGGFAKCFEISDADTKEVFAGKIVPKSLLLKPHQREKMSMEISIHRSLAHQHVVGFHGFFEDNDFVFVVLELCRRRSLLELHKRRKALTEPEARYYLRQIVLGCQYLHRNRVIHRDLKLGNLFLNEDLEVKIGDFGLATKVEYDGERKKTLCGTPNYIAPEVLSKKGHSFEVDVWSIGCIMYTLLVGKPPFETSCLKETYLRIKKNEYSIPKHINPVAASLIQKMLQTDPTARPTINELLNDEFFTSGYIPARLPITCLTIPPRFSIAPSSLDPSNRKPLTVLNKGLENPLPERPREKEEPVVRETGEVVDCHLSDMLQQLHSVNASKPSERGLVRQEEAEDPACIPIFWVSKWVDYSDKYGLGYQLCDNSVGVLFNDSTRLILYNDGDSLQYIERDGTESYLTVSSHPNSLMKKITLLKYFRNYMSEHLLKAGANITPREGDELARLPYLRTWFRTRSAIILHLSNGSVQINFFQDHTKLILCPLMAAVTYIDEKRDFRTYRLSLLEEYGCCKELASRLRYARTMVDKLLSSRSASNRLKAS

| SMILES | Potency | max response, negative = inhibition |
| --- | --- | --- |
| CNC(=O)CC(CC(=O)c1ccccc1)c1ccccc1 (stereo not drawn) | inconclusive: 37.7 µM [inhibitor, single point] |  |
| O=C(CNC(=O)OCc1ccccc1)Oc1ccc2ccc(=O)oc2c1 | inconclusive: 26.7 µM [inhibitor, partial curve] |  |
| COc1ccc(/C=C/C(=O)N2CCN(S(=O)(=O)c3ccccc3)CC2)cc1OC |  | inactive: 2.43% |
| CC(C)CC(=O)NC(=S)Nc1sc2c(c1C(N)=O)CCC2 |  | inconclusive: -31% [inhibitor] |
| CN(C(=O)CSc1nnc(Nc2ccccc2F)s1)C1CCS(=O)(=O)C1 (stereo not drawn) |  | inconclusive: -35.5% [inhibitor] |
| COc1ccc(O)c(/C=C(\C#N)C(=O)Nc2ccccn2)c1 |  | inactive: -12% |
| COc1ccc(CCNC(=O)[C@H](C)NC(=O)N2CCn3c2nc2ccccc23)cc1OC | inconclusive: 23.8 µM [inhibitor, single point] |  |
| COc1ccc(C2NC(=S)NC3=C2CCc2ccccc23)cc1OC (stereo not drawn) | inconclusive: 21.2 µM [inhibitor, partial curve] |  |
| Cc1ccccc1C(=O)NNC(=O)/C=C\C(=O)O | inconclusive: 37.7 µM [inhibitor, partial curve] |  |
| CCn1c2ccccc2nc2cc3c(cc21)c(Cl)c(=O)c1ccccc13 | inconclusive: 9.47 µM [inhibitor, partial curve] |  |
| CC1=C(C(=O)OCC(Cl)(Cl)Cl)N2C(=O)C(NC(=O)Cc3ccccc3)C2SC1 (stereo not drawn) |  | inactive: -28.7% |
| COc1ccc(NS(=O)(=O)c2c(F)cc(F)c(Cl)c2F)cc1S(=O)(=O)N1CCCCC1 |  | inactive: -2.93% |
| Cc1ccc[n+](-c2nc([O-])sc2C=O)c1 | active: 13.4 µM |  |
| O=C(O)c1ccccc1N/N=C/C1=C(N2CCOCC2)C(=C\c2ccccc2)/CC1 | inconclusive: 16.8 µM [inhibitor, partial curve] |  |
| O=C(NCc1n[nH]c(=S)n1-c1ccccc1)c1ccc(S(=O)(=O)N2CCCCC2)cc1 | inconclusive: 26.7 µM [inhibitor, single point] |  |
| CC(C(=O)NC1C=CS(=O)(=O)C1)N1C(=O)/C(=C\c2ccccc2)SC1=S (stereo not drawn) | inconclusive: 18.9 µM [inhibitor, partial curve] |  |
| CC(NC(=O)COC(=O)CCc1ccc(S(=O)(=O)N2CCOCC2)cc1)C1CC2CCC1C2 (stereo not drawn) | inconclusive: 29.9 µM [inhibitor, partial curve] |  |
| O=C1C=CC(=O)N1CCNc1ncc(C(F)(F)F)cc1Cl | active: 2.67 µM |  |
| COc1ccc(-c2csc(NC(=O)c3ccccc3NS(=O)(=O)c3ccc(C)cc3)n2)cc1 | inconclusive: 23.8 µM [inhibitor, single point] |  |
| CCOC(=O)c1nnn(-c2nonc2N)c1CSc1ccc(C)cc1 | inconclusive: 21.2 µM [inhibitor, partial curve] |  |
| O=c1cc(C(F)(F)F)nc(SC/C=C/c2ccccc2)[nH]1 | inconclusive: 21.2 µM [inhibitor, single point] |  |
| O=C1N/C(=N/Nc2ccccc2)S/C1=C\c1ccccc1 | active: 21.2 µM |  |
| CC(=O)OCC1=C(C(=O)O)N2C(=O)[C@@H](NC(=O)Cc3cccs3)[C@H]2SC1 | inconclusive: 23.8 µM [inhibitor, partial curve] |  |

| SMILES | Potency | max response, negative = inhibition |
| --- | --- | --- |
| O=C(O)c1ccc(-n2cccc2/C=C2/NC(=O)N(c3cccc(Cl)c3)C2=O)cc1 | active: 26.7 µM |  |
| CCCC(=O)N(Cc1cc(=O)[nH]c2ccccc12)c1ccccc1 | inconclusive: 37.7 µM [inhibitor, single point] |  |
| O=c1cc(CCl)nc2sc3ccccc3n12 | inconclusive: 29.9 µM [inhibitor, single point] |  |
| O=C(O)CCCCN1C(=O)/C(=C\c2ccc(OCc3ccccc3)c(OCc3ccccc3)c2)SC1=S | inconclusive: 15 µM [inhibitor, partial curve] |  |
| O=C(O)c1ccc2c(c1)C1C=CCC1C(c1cc3c(cc1Br)OCO3)N2 (stereo not drawn) | inconclusive: 29.9 µM [inhibitor, single point] |  |
| O=C(Nc1ccc2nccnc2c1)c1cnccn1 | inconclusive: 29.9 µM [inhibitor, single point] |  |
| CSc1nncn1/N=C/c1cc(Cl)ccc1F | inconclusive: 26.7 µM [inhibitor, single point] |  |
| O=C(N/N=C/c1coc2ccccc2c1=O)c1cn(-c2ccccc2)nc1-c1ccccc1 | inconclusive: 9.47 µM [inhibitor, partial curve] |  |
| COc1ccc(NS(=O)(=O)c2ccc(N3CCCC3)c(NC(=S)Nc3cccc(C)c3C)c2)cc1 | active: 3.77 µM |  |
| CCc1ccc2c(c1)/C(=C/C(=O)c1cccs1)C(=O)N2 | inconclusive: 10.6 µM [inhibitor, partial curve] |  |
| O=C(CNS(=O)(=O)c1c(Cl)cccc1Cl)OCC(=O)N1CCN(c2ccccc2)CC1 |  | inactive: -9% |
| Cc1cc(-c2nnc(SCC(=O)Nc3ccc(Br)cc3F)n2N)n[nH]1 |  | inactive: -4.37% |
| CS(=O)(=O)c1ccc2nc(NC(=O)CCN3C(=O)c4ccccc4C3=O)sc2c1 | inconclusive: 33.6 µM [inhibitor, partial curve] |  |
| CN(CCC#N)C(=O)COC(=O)c1ccccc1C(=O)c1ccc(Cl)c([N+](=O)[O-])c1 | inconclusive: 26.7 µM [inhibitor, single point] |  |
| CC(=O)c1cccc(NC(=O)CN2C(=O)COc3ccc(Cl)cc32)c1 |  | inactive: -5.14% |
| CCOC(=O)N1CCC(NC(=O)c2ccc(CS(=O)c3cccc(Cl)c3)o2)CC1 (stereo not drawn) | inconclusive: 4.74 µM [inhibitor, single point] |  |
| CCCCn1c(CCC(=O)O)ccc1-c1cccs1 |  | inactive: -22.3% |
| COC(=O)C1=C2SCC(=O)N2C(N)=C(C#N)C1 | inconclusive: 21.2 µM [inhibitor, partial curve, poor fit] |  |
| NC(=O)c1sc2nc3c(c(-c4ccco4)c2c1N)CCC3 | inconclusive: 29.9 µM [inhibitor, partial curve] |  |
| NC(=O)NOCc1ccc(F)cc1Cl |  | inactive: -0.739% |
| COc1ccc(C(N)c2csc(Nc3ccc(C(F)(F)F)cn3)n2)cc1 (stereo not drawn) | inconclusive: 29.9 µM [inhibitor, single point] |  |
| CC1Cc2cc(/C=C3/SC(=S)NC3=O)ccc2O1 (stereo not drawn) | inconclusive: 23.8 µM [inhibitor, partial curve] |  |
| CCCc1c(-c2ccc(Cl)cc2)ncn1Cc1cccc(-c2ccccc2)c1 | inconclusive: 21.2 µM [inhibitor, partial curve] |  |

| SMILES | Potency | max response, negative = inhibition |
| --- | --- | --- |
| COc1ccc(Br)cc1/C=N/NS(=O)(=O)c1ccccc1 | inconclusive: 5.32 µM [inhibitor, partial curve] |  |
| CC1(C)CC(=O)C=C(OC(=O)c2ccc(Cl)cc2)C1 | active: 11.9 µM |  |
| COc1ccccc1S(=O)Cc1ccc(C(=O)O)o1 (stereo not drawn) | inconclusive: 21.2 µM [inhibitor, partial curve] |  |
| CC(OC(=O)CSc1ccc([N+](=O)[O-])cc1)C(=O)NC1CC1 (stereo not drawn) | inconclusive: 47.4 µM [inhibitor, partial curve, poor fit] |  |
| Cn1cccc1Cc1nnc(SCC(=O)Nc2cccc(F)c2)n1-c1ccc(F)cc1 |  | inconclusive: -32.5% [inhibitor] |
| CCCCc1ccc(S(=O)(=O)N/N=C(/C)c2ccncc2)cc1 | inconclusive: 23.8 µM [inhibitor, partial curve] |  |
| COc1ccc2[nH]c3c(c2c1)CCN1C(=O)C(CC(=O)NCCN2CCOCC2)C[C@H](C(=O)N2CCCCC2)[C@@]31CCc1ccccc1 (stereo partly drawn) | inconclusive: 21.2 µM [inhibitor, partial curve] |  |
| CCOC1=C2[C@@H](CN(S(=O)(=O)c3ccc(C)cc3)[C@H]2c2cccc3ccccc23)[C@H]2C(=O)N(c3ccccc3)C(=O)[C@H]2C1 |  | inactive: -4.19% |
| CC(C)c1ccc(NC(=O)C(c2ccccc2)N(C)C(=O)CCc2c[nH]c3ccccc23)cc1 (stereo not drawn) |  | inactive: 0.0077% |
| COc1ccc(C(=O)O/N=C2\C(=O)N(C)c3ccccc32)cc1 | inconclusive: 21.2 µM [inhibitor, partial curve] |  |
| CC(=O)NCCc1nc2ccccc2n1CCOc1ccccc1 | active: 23.8 µM |  |
| Cc1cc(NC(=O)c2ccccc2)ncc1NC(=O)c1ccco1 |  | inactive: -11.8% |
| COc1ccccc1N1CCN(S(=O)(=O)c2c(C(=O)N3CCOCC3)c(C)n(C)c2C)CC1 | active: 3.36 µM |  |
| CCCOC(=O)c1c(-c2ccc(OC)cc2)oc2ccc(-c3ccc(OC)nc3)cc12 | active: 37.7 µM |  |
| c1ccn2cc(CSc3nnc4ccccn34)nc2c1 |  | inactive: 1.21% |
| CCCn1c(SCCC(=O)O)nc2ccccc21 | inconclusive: 23.8 µM [inhibitor, single point] |  |
| Cc1ccc(NC(=S)N(Cc2cccs2)Cc2cc3cc(C)cc(C)c3[nH]c2=O)cc1 |  | inactive: -1.1% |
| COc1cc(C(=O)NCC(=O)OCC(=O)Nc2ncc(Cl)cc2Cl)cc(OC)c1OC | inconclusive: 37.7 µM [inhibitor, single point] |  |
| CCCc1nc(N)sc1C(=O)OCC | inconclusive: 21.2 µM [inhibitor, partial curve] |  |
| O=C(Nc1cccc(-c2nc3ccccc3c(=O)o2)c1)c1ccccc1 | active: 21.2 µM |  |
| Cc1ccc(CNC(=O)CCCn2nc(C)c3c(C)n(-c4ccccc4)nc3c2=O)cc1 | inconclusive: 23.8 µM [inhibitor, single point] |  |
| Cc1cc(N=NC(=O)c2ccccc2O)c2ccccc2c1O | active: 26.7 µM |  |

Sorted by molar mass (largest number first): some entries from above

| SMILES | Potency | max response, negative = inhibition |
| --- | --- | --- |
| CN(CCC#N)C(=O)COC(=O)c1ccccc1C(=O)c1ccc(Cl)c([N+](=O)[O-])c1 | inconclusive: 26.7 µM [inhibitor, single point] |  |
| CCc1ccc2c(c1)/C(=C/C(=O)c1cccs1)C(=O)N2 | inconclusive: 10.6 µM [inhibitor, partial curve] |  |
| CCCn1c(SCCC(=O)O)nc2ccccc21 | inconclusive: 23.8 µM [inhibitor, single point] |  |

Reference: PubChem BioAssay AID720504 (National Center for Advancing Translational Sciences (NCATS), 2013)
